From PubChem BioAssay AID1347421 (Sanford-Burnham Center for Chemical Genomics, 2020)
In all, about 1,500 compounds were measured (“activity”: median about 2, lowest 2% from about -18 on). The list shows a part of the results. Active and inactive are the calls of the source.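 The calls were made as follows: active = inhibition of at least 40% at 10 µM; inconclusive = no clear call, values can overlap the other calls; inactive = the rest.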

The chains behind the UniProt entries cited, without tags or fusion partners. Where a name states a change or a piece, a line headed by the entry shows the natural chain unless it says otherwise.
UniProt O00391: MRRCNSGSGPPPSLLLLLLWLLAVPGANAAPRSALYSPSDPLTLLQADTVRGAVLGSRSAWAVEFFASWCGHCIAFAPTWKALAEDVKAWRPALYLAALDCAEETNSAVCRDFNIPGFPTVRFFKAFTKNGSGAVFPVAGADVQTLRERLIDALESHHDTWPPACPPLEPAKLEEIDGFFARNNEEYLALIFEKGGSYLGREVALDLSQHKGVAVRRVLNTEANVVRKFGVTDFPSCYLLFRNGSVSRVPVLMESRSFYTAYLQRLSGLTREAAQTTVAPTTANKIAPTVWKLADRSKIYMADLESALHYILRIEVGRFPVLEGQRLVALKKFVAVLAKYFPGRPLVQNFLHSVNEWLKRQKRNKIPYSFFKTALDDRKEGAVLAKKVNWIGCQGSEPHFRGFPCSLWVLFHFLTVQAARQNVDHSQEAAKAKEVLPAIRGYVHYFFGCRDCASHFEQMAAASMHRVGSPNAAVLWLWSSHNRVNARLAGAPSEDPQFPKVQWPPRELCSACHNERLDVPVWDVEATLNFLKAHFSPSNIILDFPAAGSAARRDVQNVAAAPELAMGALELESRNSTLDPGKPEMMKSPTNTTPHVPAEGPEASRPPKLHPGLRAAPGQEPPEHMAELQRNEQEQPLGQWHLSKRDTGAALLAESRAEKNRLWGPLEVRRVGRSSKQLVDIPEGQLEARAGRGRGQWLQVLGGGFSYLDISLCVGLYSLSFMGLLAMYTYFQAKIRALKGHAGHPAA

molecular target: Sulfhydryl oxidase 1 (Homo sapiens) (UniProt O00391); assay: QSOX1 enzyme inhibitors, confirmation, biochemical, ROS-Glo luminescence, single concentration (AID 1347421); conditions: recombinant hQSOX1, RNase A substrate, ROS-Glo H2O2 luminescence; at 10 µM;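 also: 0% = DMSO wells with enzyme and 100% = wells lacking QSOX1 enzyme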

| Compound | activity |
| --- | --- |
| CN(Cc1ccccc1)C(=O)c1nc2ccccn2c1CNCCCN1CCOCC1 | 8.1% |
| Cc1cnc(C)c(N2C[C@H]3OC(=O)N(CCc4ccc(F)cc4)[C@H]3C2)n1 | 7.8% |
| COc1ccc(C(=O)N2CCOC(CC3CCCCC3)C2)c(OC)n1 (stereo not given) | 7.6% |
| OCCC1CN(Cc2cccc3ccccc23)CCN1C1CCCC1 (stereo not given) | inactive: -0.7% |
| COc1cccc(C(=O)Nc2nc(C)c(C)s2)c1OC | 36.7% |
| COc1cc(C)ccc1OCc1nc(C(=O)NCc2ccc(C)o2)co1 | inactive: -1.6% |
| COCCN1CCC(CN(Cc2ccncc2)Cc2ccccc2OCCO)CC1 | inactive: -2.4% |
| C=C(C)CN(CC)C(=O)c1cc(COc2ccc(-n3cncn3)cc2)on1 | 9.4% |
| CC(=O)Oc1ccc(/C=C/c2ccc3ccccc3n2)cc1Cl | active: 55.2% |
| CC(C)(C)c1ccc(-c2cn[nH]c2N)cc1 | inactive: -2.1% |
| CSc1ncc(CN2CCCC(CO)(CCOc3ccccc3)C2)cn1 (stereo not given) | 10.5% |
| OC(COc1ccccc1CN1CCSCC1)CN1CCc2ccccc2C1 (stereo not given) | 8.9% |
| CCOC(=O)CCNC(=O)N1CCOC(Cc2cccc(OC)c2)C1 (stereo not given) | 2.5% |
| CSCCC(=O)N1CCc2[nH]nc(-c3ccc4c(c3)OCO4)c2C1 | inactive: -4.4% |
| O=C1NCCN(CC(c2ccccc2)c2ccccc2)C1CC(=O)N1CCCCC1 (stereo not given) | 7.3% |
| Cn1c(CCC2CCCCC2)nnc1SCC(N)=O | 6.4% |
| COc1ccc(Cl)cc1Nc1nc(N)nc(CN2CCN(c3ccccc3)CC2)n1 | 2.1% |
| COc1cccc(CC2CN(C(=O)Cc3ccn(C)c3)CCO2)c1 (stereo not given) | inactive: -1.3% |
| O=C(CCN1CCCO1)N1CCCC(N2CCN(c3cccc(C(F)(F)F)c3)CC2)C1 (stereo not given) | inactive: -0.1% |
| COc1ccccc1CCN1CCC(CN(C)C(=O)c2cn3ccccc3n2)CC1 | 0.1% |
| CCC(CO)NCc1c(F)cccc1Cl (stereo not given) | 4.2% |
| Cn1nc(C(=O)N2CCc3ccccc32)c2ccccc2c1=O | inactive: -5.3% |
| Cc1oc(-c2cccs2)nc1CN(C)CC1COc2ccccc2O1 (stereo not given) | inactive: -0.6% |
| Cc1ccc2c(c1)N(CC(=O)NC1CCCCC1)C(=O)CO2 | inactive: -9.8% |
| O=C(Nc1cccnc1)c1cccc(S(=O)(=O)N2CCCC2)c1 | inactive: -9.8% |
| O=C(NC1CC(=O)N(CCCc2ccccc2)C1)C(=O)c1ccco1 (stereo not given) | 7.7% |
| CN1CCN(CC(O)COc2ccc(CNCc3ccccc3Cl)cc2)CC1 (stereo not given) | 5.5% |
| CN(Cc1ccccc1)C(=O)CCC1CCN(C(=O)C2COc3ccccc3O2)CC1 (stereo not given) | 6.6% |
| CN(C)CCNC(=O)CCC1CCN(Cc2cc3ccccc3s2)CC1 | 4.2% |
| CC(Oc1ccccc1)C(=O)N1CCc2onc(-c3ccc(F)c(F)c3)c2C1 (stereo not given) | 10.1% |

Arranged by SMILES length (rising): 3 of the compounds above

| Compound | activity |
| --- | --- |
| COc1cccc(C(=O)Nc2nc(C)c(C)s2)c1OC | 36.7% |
| CN(C)CCNC(=O)CCC1CCN(Cc2cc3ccccc3s2)CC1 | 4.2% |
| CN1CCN(CC(O)COc2ccc(CNCc3ccccc3Cl)cc2)CC1 (stereo not given) | 5.5% |
